Test results: publication PMC4047164 (Biochimica et biophysica acta, 2014)
“And” between values parts separate entries of the source, which are not always exact repeats. Equal entries are not always repeated.

By UniProt entry, the sequences of proteins in these tests, tags left out. Where a name states a change or a piece, a line headed by the entry shows the natural chain unless it says otherwise.
UniProt Q2FZW0: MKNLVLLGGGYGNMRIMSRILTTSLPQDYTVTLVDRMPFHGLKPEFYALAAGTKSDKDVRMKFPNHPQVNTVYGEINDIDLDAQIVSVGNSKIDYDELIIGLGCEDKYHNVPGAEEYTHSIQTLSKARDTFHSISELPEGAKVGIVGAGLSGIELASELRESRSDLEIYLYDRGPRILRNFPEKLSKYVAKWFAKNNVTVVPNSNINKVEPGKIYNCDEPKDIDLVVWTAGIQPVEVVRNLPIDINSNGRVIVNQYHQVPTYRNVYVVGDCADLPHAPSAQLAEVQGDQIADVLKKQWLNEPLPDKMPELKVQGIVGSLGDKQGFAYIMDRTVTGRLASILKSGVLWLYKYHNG
UniProt Q2YWP9: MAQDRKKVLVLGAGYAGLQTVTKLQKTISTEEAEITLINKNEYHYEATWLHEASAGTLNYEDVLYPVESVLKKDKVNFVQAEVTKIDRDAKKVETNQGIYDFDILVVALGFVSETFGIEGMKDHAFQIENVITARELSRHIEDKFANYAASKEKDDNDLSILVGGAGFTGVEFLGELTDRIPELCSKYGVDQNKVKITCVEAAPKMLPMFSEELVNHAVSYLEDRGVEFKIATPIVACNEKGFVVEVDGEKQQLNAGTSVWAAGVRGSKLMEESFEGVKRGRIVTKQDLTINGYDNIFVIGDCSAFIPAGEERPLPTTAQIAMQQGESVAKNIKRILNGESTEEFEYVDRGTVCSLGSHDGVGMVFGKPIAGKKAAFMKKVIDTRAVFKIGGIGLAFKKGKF

How the values were obtained:
NdhF = NdhF (Staphylococcus aureus, UniProt Q2FZW0); assay: biochemical; settings: IC50, NdhF + Q8
S. aureus membranes = assay: NADH-driven respiration; type: biochemical; settings: read-out: IC50, respiration of S. aureus membranes
NdhC = NdhC (Staphylococcus aureus, UniProt Q2YWP9); assay: biochemical; set-up: species or system S. aureus; settings: IC50, NdhC + Q8

CSc1ccc2c(c1)N(CCC1CCCCN1C)c1ccccc1S2 (stereo not drawn) [TZ, Thioridazine]
IC50 (NdhF): 14 µM and 13.5 µM | IC50 (S. aureus membranes): 7.4 ± 1 µM | IC50 (NdhC): 8 µM and 7.9 µM
